Results published in US20160069887A1, “BIOMARKERS FOR PROGNOSIS” (ISIS INNOVATION LIMITED, priority 2013, published 2016).
No constants are given. Whether binding was seen depends on the method and setting. In cells and extracts the contact can be indirect. Some binding calls cover weakened binding; strength is not graded here.

Chains of the proteins cited; added tags and fusions are not shown. Lines headed by an entry give the natural chain unless they say otherwise; changes in a name come on top.
UniProt P54727: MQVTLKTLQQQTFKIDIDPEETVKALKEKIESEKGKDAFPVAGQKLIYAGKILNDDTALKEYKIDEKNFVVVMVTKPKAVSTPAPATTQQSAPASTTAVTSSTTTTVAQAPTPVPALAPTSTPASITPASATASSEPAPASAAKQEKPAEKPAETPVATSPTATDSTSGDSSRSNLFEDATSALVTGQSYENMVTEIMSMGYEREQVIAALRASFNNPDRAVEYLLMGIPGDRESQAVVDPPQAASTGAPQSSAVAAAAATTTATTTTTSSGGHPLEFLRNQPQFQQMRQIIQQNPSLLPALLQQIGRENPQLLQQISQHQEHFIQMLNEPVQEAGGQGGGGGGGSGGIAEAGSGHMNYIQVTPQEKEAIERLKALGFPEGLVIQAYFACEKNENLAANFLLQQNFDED
UniProt Q9UBN7: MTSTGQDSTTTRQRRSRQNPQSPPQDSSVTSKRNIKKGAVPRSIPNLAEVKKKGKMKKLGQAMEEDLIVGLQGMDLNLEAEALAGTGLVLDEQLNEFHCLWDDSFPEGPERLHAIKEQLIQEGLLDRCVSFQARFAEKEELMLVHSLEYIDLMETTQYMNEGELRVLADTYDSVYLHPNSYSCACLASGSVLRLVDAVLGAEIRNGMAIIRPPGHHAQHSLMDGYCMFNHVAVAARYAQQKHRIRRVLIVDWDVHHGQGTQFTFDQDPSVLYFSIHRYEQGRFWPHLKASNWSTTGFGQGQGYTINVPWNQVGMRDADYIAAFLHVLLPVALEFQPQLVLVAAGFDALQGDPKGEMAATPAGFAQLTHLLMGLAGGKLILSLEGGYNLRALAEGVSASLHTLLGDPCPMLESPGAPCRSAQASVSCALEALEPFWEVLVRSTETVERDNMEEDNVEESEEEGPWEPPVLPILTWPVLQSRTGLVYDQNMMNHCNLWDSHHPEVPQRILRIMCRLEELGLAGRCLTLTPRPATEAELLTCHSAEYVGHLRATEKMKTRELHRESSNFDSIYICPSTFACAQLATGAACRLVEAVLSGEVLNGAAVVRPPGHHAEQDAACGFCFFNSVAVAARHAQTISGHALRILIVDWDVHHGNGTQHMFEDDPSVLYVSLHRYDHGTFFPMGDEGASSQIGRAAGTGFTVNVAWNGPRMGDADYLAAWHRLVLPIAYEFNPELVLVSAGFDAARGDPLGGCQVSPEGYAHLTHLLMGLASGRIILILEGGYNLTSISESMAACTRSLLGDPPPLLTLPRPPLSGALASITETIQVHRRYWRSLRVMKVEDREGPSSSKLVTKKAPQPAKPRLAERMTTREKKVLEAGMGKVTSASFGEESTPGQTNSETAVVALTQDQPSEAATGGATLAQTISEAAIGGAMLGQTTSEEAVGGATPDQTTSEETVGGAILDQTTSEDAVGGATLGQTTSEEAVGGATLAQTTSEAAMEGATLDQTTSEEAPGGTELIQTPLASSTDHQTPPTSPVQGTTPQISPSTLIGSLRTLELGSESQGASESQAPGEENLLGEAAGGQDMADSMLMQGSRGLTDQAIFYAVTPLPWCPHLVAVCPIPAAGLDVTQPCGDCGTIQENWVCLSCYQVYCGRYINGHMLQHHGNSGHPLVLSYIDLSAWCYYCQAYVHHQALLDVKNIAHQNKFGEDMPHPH

Experiments:
[1] = target: HR23B, endogenous (Homo sapiens (Human)) (UniProt P54727); assay: anti-Flag co-immunoprecipitation of transfected Flag-HDAC6 from U2OS cells, immunoblot for endogenous HR23B (FIG. 4a)
[2] = target: HR23B wild-type, myc/his tagged (Homo sapiens (Human)) (UniProt P54727); assay: anti-Flag co-immunoprecipitation from U2OS cells co-transfected with Flag-HDAC6 and myc-tagged HR23B, anti-Myc immunoblot (FIG. 4b)
[3] = target: HR23B, endogenous (Homo sapiens (Human)) (UniProt P54727); assay: anti-Flag co-immunoprecipitation from transfected U2OS cells, immunoblot for endogenous HR23B
[4] = target: HR23B, endogenous (Homo sapiens (Human)) (UniProt P54727); assay: summary of the co-immunoprecipitation results of Example 4
[5] = target: HR23B, endogenous (Homo sapiens (Human)) (UniProt P54727); assay: co-immunoprecipitation of endogenous proteins from U2OS extracts (anti-HR23B or anti-HDAC6), immunoblot
[6] = target: Flag-HDAC6 (wild-type, full length, ectopic) (human) (UniProt Q9UBN7); assay: anti-Flag co-immunoprecipitation of Flag-HDAC6 from co-transfected U2OS cells, anti-Myc immunoblot

Q: For “Flag-HDAC6 (wild-type, full length, ectopic) (from UniProt Q9UBN7 1-1215) (enzyme)”, which binding [1] is on record?
A: Its binding is “binds”.

Q: And the binding [2]?
A: The binding was “binds”.

Q: Which binding [3] does the source give for “Flag-HDAC6 BUZ (BUZ domain alone) (from UniProt Q9UBN7 1109-1215)” here?
A: Its binding is “binds”.

Q: For “Flag-HDAC6 ΔN (439-1215) (from UniProt Q9UBN7 439-1215) (enzyme)”, which binding [3] is on record?
A: The binding was “binds”.

Q: With “HDAC6 (histone deacetylase 6), endogenous (from UniProt Q9UBN7 1-1215) (enzyme)” as the substance, how does the binding [4] read?
A: Its binding is “binds”.

Q: What about the binding [5] of the same substance?
A: The binding was “binds”.

Q: Which binding [6] does the source give for “HR23B wild-type, myc/his tagged (from UniProt P54727 1-409)” here?
A: The binding was “binds”.

Q: Which binding [6] does the source give for “HR23B ΔUbA, myc/his tagged (from UniProt P54727 1-189)” here?
A: The binding was “binds”.
